Results: patent publication US12595504B2, “Methods for screening compounds for bactericidal activity and for determining the sensitivity of bacterial samples” (priority 2020, dated 2026)
At least one structure is not confirmed: it was looked up by name or label, or the drawing left a doubt.

Test system: E. coli MG1655 reporter cells
Format: cell-based, Escherichia coli
Details: for Shape of ATP release trace: LB medium, 37° C., FIG. 8
Method: The classical luciferase was from Molecular Probes (ATP Determination Kit (A22066)). The thermostable luciferase was from “CheckLite AT100” (kikkoman). The Luciferin-luciferase reagents were prepared following manufacturer instructions. Bacteria from exponentially growing cultures (OD600=0.3) were added to each well (60 μl/well) of a black 96-microtiter plate (Greiner Bio-one, 655076) and 20 μl of the luciferin-luciferase reagent solution was added. The microtiter plate was incubated 5 min at 37° C. for reaction with the luciferase to eliminate traces of extracellular ATP. Then 40 μl of antibiotic solution (3 times concentrated) prepared in the culture medium were added. Bioluminescence of each well was monitored for 4 hours under shaking (218 rpm) and at 28 or 37° C., depending on the experiments (see legends of Figures). The reagent stability in presence or absence of antibiotics was checked in control experiments without bacteria but with 4 pmoles of ATP. Tests were also performed in 384-microtiter plates (Greiner Bio-one, 784076).
Aminoglycosides are bactericidal antibiotics causing translational miscoding with lethal consequences for the cell. Leakage of small molecules following an aminoglycoside shock was previously identified by different methods including radiolabelling. Therefore, the inventors investigated the response of live cells to aminoglycoside stress.

Row | SMILES | Shape of ATP release trace | Amplitude of ATP release (bacteriostatic antibiotics, LB, FIG. 9)
1 | NC[C@H]1O[C@H](O[C@H]2[C@H](O)[C@@H](O[C@H]3O[C@H](CO)[C@@H](O)[C@H](N)[C@H]3O)[C@H](N)C[C@@H]2N)[C@H](O)[C@@H](O)[C@@H]1O [Kanamycin] | bi-phasic | –
2 | CC1COc2c(N3CCN(C)CC3)c(F)cc3c(=O)c(C(=O)O)cn1c23 (stereo not drawn) [Ofloxacin] | monophasic | –
3 | CO[C@H]1/C=C/O[C@@]2(C)Oc3c(C)c(O)c4c(O)c(c(/C=N/N5CCN(C)CC5)c(O)c4c3C2=O)NC(=O)/C(C)=C\C=C\[C@H](C)[C@H](O)[C@@H](C)[C@@H](O)[C@@H](C)[C@H](OC(C)=O)[C@@H]1C [Rifampicin] | – | weak ATP leakage
